Measurements as given in article PMC9959048, “Lipidation of Naturally Occurring α-Helical Antimicrobial Peptides as a Promising Strategy for Drug Design” (International Journal of Molecular Sciences, 2023).
Residues, ends and D or L forms follow the SMILES beside them. *: point of attachment. Decanoyl = CCCCCCCCCC(=O)*; Octanoyl = CCCCCCCC(=O)*

Assays:
POPG LUVs = assay: Isothermal titration calorimetry, binding to POPG LUVs; conditions: ITC, 25 °C
Protocol: (§1) Large unilamellar vesicles (LUV) were obtained by extrusion of MLV liposomes through polycarbonate membrane filters with a pore diameter of 100 nm (Whatman International Ltd., Kent, UK) using a mini-extruder (Avanti Polar Lipids, Inc., Alabaster, AL, USA).
(§2) The thermodynamic parameters of the interactions of the lipopeptides with POPG and POPC liposomes were determined by isothermal titration calorimetry (ITC). Measurements were performed at 25 °C using an AutoITC microcalorimeter (MicroCal Inc., Northampton, MA, USA) with a 1.4491 mL sample and reference cells. The experiment consisted in the titration of a buffered peptide solution with a concentration of 0.05 and/or 0.07 mM with a buffered solution containing POPG or POPC LUVs with a lipid concentration of 1.3 and 1.8 mM (10.02 µL; 29 injections, 2 µL for the first injection only), as it was described previously. The result of the titration was a thermogram showing a series of peaks corresponding to the titration steps. A titration curve was obtained after integration of the peak areas. The obtained isotherms were fitted to the “one set of sites” or “two sets of sites” models available in the ORIGIN 7.0 (MicroCal Inc., Northampton, MA, USA), which made it possible to determine the enthalpy (ΔH), the binding constant (KITC) and the stoichiometry (N) of the interactions between the lipopeptide and the lipids. The following formula was used to calculate the entropy change (ΔS) and the Gibbs free energy (ΔG): ΔG=−RTln(55.5KITC)=ΔH−TΔS where: factor 55.5 is the molar concentration of water, R is the gas constant (1.986 cal·mol^−1·K^−1), and T is the absolute temperature.

POPC LUVs = assay: Isothermal titration calorimetry, binding to POPC LUVs; conditions: ITC, 25 °C, 1.3 mM POPC to 0.05 mM C10-LL-I
Protocol: as §1, §2

[1] = 0.05 or 0.07 mM peptide titrated with 1.3 or 1.8 mM POPG LUVs, one set of sites model (C10-LL-I: two sets of sites, first line)
[2] = one set of sites model (C10-LL-I: two sets of sites, first line)
[3] = ΔG=−RTln(55.5KITC), one set of sites model (C10-LL-I: two sets of sites, first line)
[4] = two sets of sites model, second line

Structure (SMILES) | N (stoichiometry), POPG (POPG LUVs; [1]) | TΔS, POPG (POPG LUVs; [2]) [kJ/mol] | ΔH, POPG (POPG LUVs; [2]) [kJ/mol] | ΔG, POPG (POPG LUVs; [3]) [kJ/mol] | N (stoichiometry), POPG (POPG LUVs; 1.8 mM POPG to 0.07 mM C10-LL-I, two sets of sites model, second line) | TΔS, POPG (POPG LUVs; [4]) [kJ/mol] | ΔG, POPG (POPG LUVs; [4]) [kJ/mol] | ΔH, POPG (POPG LUVs; [4]) [kJ/mol] | N (stoichiometry), POPC (POPC LUVs) | TΔS, POPC (POPC LUVs) [kJ/mol] | ΔG, POPC (POPC LUVs) [kJ/mol] | ΔH, POPC (POPC LUVs) [kJ/mol]
CCCCCCCC(=O)N[C@@H](CCCCN)C(=O)N[C@@H](CCCNC(=N)N)C(=O)N[C@@H](Cc1ccccc1)C(=O)N[C@@H](CCCCN)C(=O)N[C@@H](CCCCN)C(=O)N[C@@H](Cc1ccccc1)C(=O)N[C@@H](Cc1ccccc1)C(=O)N[C@@H](CCCCN)C(=O)N[C@@H](CCCCN)C(=O)N[C@@H](CC(C)C)C(=O)N[C@@H](CCCCN)C(N)=O [C8-ATRA-1] (Octanoyl-KRFKKFFKKLK-NH2) | 2.84 ± 0.08 | 43.9 ± 1.51 | 1.13 ± 0.042 | -43.1 ± 1.51 | – | – | – | – | – | – | – | –
CCCCCCCC(=O)N[C@H](C(=O)N[C@@H](CCCCN)C(=O)N[C@@H](CCCCN)C(=O)N[C@H](C(=O)N[C@@H](CC(C)C)C(=O)N[C@@H](CO)C(=O)N[C@@H](CCCCN)C(=O)N[C@H](C(=O)N[C@@H](CCCCN)C(=O)N[C@@H](CCCCN)C(=O)N[C@@H](CC(C)C)C(=O)N[C@@H](CC(C)C)C(=O)N[C@@H](CCCCN)C(N)=O)[C@@H](C)CC)[C@@H](C)CC)[C@@H](C)CC [C8-LK6] (Octanoyl-IKKILSKIKKLLK-NH2) | 1.02 ± 0.05 | 50.21 ± 1.92 | 4.06 ± 0.21 | -46.02 ± 1.92 | – | – | – | – | – | – | – | –
CCCCCCCC(=O)N[C@H](C(=O)N[C@@H](CC(N)=O)C(=O)N[C@@H](Cc1c[nH]c2ccccc12)C(=O)N[C@@H](CCCCN)C(=O)N[C@@H](CCCCN)C(=O)N[C@H](C(=O)N[C@@H](CC(C)C)C(=O)NCC(=O)N[C@@H](CCCCN)C(=O)N[C@H](C(=O)N[C@H](C(=O)N[C@@H](CCCCN)C(=O)N[C@H](C(=O)N[C@@H](C)C(=O)N[C@@H](CCCCN)C(N)=O)C(C)C)[C@@H](C)CC)[C@@H](C)CC)C(C)C)C(C)C [C8-LL-I] (Octanoyl-VNWKKVLGKIIKVAK-NH2) | 2.05 ± 0.18 | -13 ± 5.69 | -45.6 ± 5.69 | -32.6 ± 0.38 | – | – | – | – | – | – | – | –
CCCCCCCCCC(=O)N[C@@H](CCCCN)C(=O)N[C@@H](CCCNC(=N)N)C(=O)N[C@@H](Cc1ccccc1)C(=O)N[C@@H](CCCCN)C(=O)N[C@@H](CCCCN)C(=O)N[C@@H](Cc1ccccc1)C(=O)N[C@@H](Cc1ccccc1)C(=O)N[C@@H](CCCCN)C(=O)N[C@@H](CCCCN)C(=O)N[C@@H](CC(C)C)C(=O)N[C@@H](CCCCN)C(N)=O [C10-ATRA-1] (Decanoyl-KRFKKFFKKLK-NH2) | 3.16 ± 0.05 | 51.04 ± 3.47 | 0.92 ± 0.042 | – | – | – | – | – | – | – | – | –
CCCCCCCCCC(=O)N[C@H](C(=O)N[C@@H](CC(N)=O)C(=O)N[C@@H](Cc1c[nH]c2ccccc12)C(=O)N[C@@H](CCCCN)C(=O)N[C@@H](CCCCN)C(=O)N[C@H](C(=O)N[C@@H](CC(C)C)C(=O)NCC(=O)N[C@@H](CCCCN)C(=O)N[C@H](C(=O)N[C@H](C(=O)N[C@@H](CCCCN)C(=O)N[C@H](C(=O)N[C@@H](C)C(=O)N[C@@H](CCCCN)C(N)=O)C(C)C)[C@@H](C)CC)[C@@H](C)CC)C(C)C)C(C)C [C10-LL-I] (Decanoyl-VNWKKVLGKIIKVAK-NH2) | 1.31 ± 0.58 | 44.35 ± 6.23 | -0.042 ± 0.13 | -44.35 ± 6.23 | 0.13 ± 1.53 | 23.7 ± 160 | -36.7 ± 3.05 | -13 ± 160 | 0.52 ± 0.34 | 30.3 ± 3.81 | -35.1 ± 1.42 | -4.85 ± 3.56
